At least one structure is not confirmed: it was looked up by name or label, or the drawing left a doubt.
Key:
[1] = cited from earlier work
Human CD8+ T cells = assay: Flow cytometry of checkpoint receptors in human CD8+ T cells activated in the presence of Dex; assay type: cell-based
[2] = test system: Naïve CD8+ T cells from wild type mice; assay: Flow cytometry of checkpoint receptors and cytokines in murine CD8+ T cells repeatedly activated with Dex and/or IL-27; assay type: cell-based, mouse; settings: for suppressive cytokine IL-10: repeated activation of CD8+ T cells
Naïve CD8+ T cells [3] = assay: RNA-Seq of naïve CD8+ T cells cultured with anti CD3/28 in the presence of Dex (GC), IL-27 or GC+IL-27 (Tables 1, 2A, 2B, 5-7); assay type: cell-based, mouse; settings: FIG. 12
Method: (§1) Cell culture and treatment with glucocorticoid. CD8^+ T cells from splenocytes and lymph nodes were isolated using CD8 microbeads (Miltenyi). Cells were further stained with antibodies against CD8, CD62L and CD44, and CD8^+CD62L^hiCD44^lo naive cells were sorted by BD FacsAria (BD Biosciences). Sorted cells were cultured for 9 days as described below in DMEM supplemented with 10% (vol/vol) FCS, […], 1 mM sodium pyruvate, nonessential amino acids, L-glutamine, and 100 U/ml penicillin and 100 µg/ml streptomycin.
RNA-Seq data pre-processing. […] Heatmap figures were generated using pheatmap package^53.
Analysis of additive and non-additive effects. To test whether the glucocorticoid and IL-27 signaling pathways had additive or non-additive effects on gene expression, Applicants stimulated naïve CD8^+ T cells in the presence of Dex, IL-27, or Dex+IL-27 in vitro. Applicants tested for non-additive effects between IL-27 and glucocorticoid signaling using a negative binomial generalized linear model in order to account for both estimations of the mean and the dispersion across conditions, where dispersion describes the relationship between the mean and variance. The model was applied to the expression data using ANOVA between a model that takes into account the interaction between IL27 and Dex versus no interaction.

Naïve CD8+ T cells [4] = assay: Quantitative RT-PCR of Prdm1, Nfil3 and Tcf7 in Ctrl, GC, IL-27 or GC+IL-27 treated cells; assay type: cell-based, mouse
Method: as §1
Quantitative PCR. Total RNA was extracted using RNeasy columns (Qiagen). Reverse transcription of mRNA was performed in a thermal cycler (Bio-Rad) using iScript cDNA Synthesis Kit (Bio-Rad). qPCR was performed in the Vii7 Real-Time PCR system (Applied Biosystems) using the primers for Taqman gene expression (Applied Biosystems). Data were normalized to the expression of Actb.

## C[C@H]1C[C@H]2[C@@H]3CCC4=CC(=O)C=C[C@]4(C)[C@@]3(F)[C@@H](O)C[C@]2(C)[C@@]1(O)C(=O)CO [Betamethasone]
[1]
  Mineralocorticoid potency: 0

## C[C@]12CCC(=O)C=C1CC[C@@H]1[C@@H]2C(=O)C[C@@]2(C)[C@H]1CC[C@]2(O)C(=O)CO [Cortisone]
[1]
  Mineralocorticoid potency: 0.8

## C[C@@H]1C[C@H]2[C@@H]3CCC4=CC(=O)C=C[C@]4(C)[C@@]3(F)[C@@H](O)C[C@]2(C)[C@@]1(O)C(=O)CO [Dexamethasone]
[1]
  Mineralocorticoid potency: 0
Human CD8+ T cells; human CD8+ T cells, Day 9
  induction of checkpoint receptor expression: conserved
Human CD8+ T cells; human samples
  frequency of Tim-3+PD-1+CD8+ T cells: increased
[2]; Day 9, flow cytometry
  Tigit expression: but not Tigit
  checkpoint receptors PD-1, Tim-3, and Lag-3: dramatically upregulated
[2]; FIG. 3
  expression of co-inhibitory receptors (Tim-3 and PD-1): promotes
  proinflammatory effector functions (IFNg, Granzyme B, IL-2, TNFa): dampens
[2]; murine samples
  frequency of Tim-3+PD-1+CD8+ T cells: increased
[2]; listed as Dex
  suppressive cytokine IL-10: up-regulated
[2]; listed as glucocorticoid
  suppressive cytokine IL-10: augments
[2]; repeated activation, 10 nM dexamethasone, Day 9, PMA/ionomycin
  production of the pro-inflammatory cytokines IFN-γ, IL-2, and TNF-α: profoundly suppressed
Naïve CD8+ T cells [3]
  transcriptional state of stimulated CD8+ T cells: transcriptionally distinct
Naïve CD8+ T cells [4]
  Tcf7 expression (qPCR): dramatically reduced

## C[C@H]1C[C@@H]2[C@H]([C@@H](O)C[C@@]3(C)[C@H]2CC[C@]3(O)C(=O)CO)[C@@]2(C)C=CC(=O)C=C12 [Methylprednisolone]
[1]
  Mineralocorticoid potency: 0.5

— patent US11957695B2, “Methods and compositions targeting glucocorticoid signaling for modulating immune responses” (The Broad Institute, Inc., priority 2018, dated 2024)
